The campaign covered roughly 390,000 compounds. About 610 (0.16%) were called active. Inconclusive results, whose numbers are uncertain, are shown with a selection of clear calls. Calls come from the whole dose curve; as a rule, active = well fitted inhibition curve with a large enough effect; inconclusive = small, poorly fitted or top-dose-only effect, or effect the other way, or another doubt; inactive = no such curve, though single readings can be large or run the other way. Where the call is inconclusive, the potency comes from a doubtful curve fit.
assay: Nrf2 qHTS screen for inhibitors: counterscreen for cytotoxicity; settings: A549 ARE-Fluc cells, CellTiter-Fluor viability, 18-24 h; series mostly up to 46 µM
Procedure, shortened: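 Cytotoxicity counterscreen: CellTiter-Fluor fluorescence was measured in A549 ARE_Fluc cells after 18-24 h of compound exposure in a concentration series. The subsequent BugLite luminescent read reports ARE-luciferase activity.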
Potency is the fitted concentration of half-maximal effect.

| Compound | Potency |
| --- | --- |
| O=C(c1ccc(Cl)cc1)C1CCCN(Cc2ccc3nonc3c2)C1 (stereo not given) | inconclusive: 18.4 µM [activator, partial curve, poor fit] |
| C=C1C(=O)O[C@@H]2C[C@@H](C)[C@@H]3C=CC(=O)[C@@]3(C)[C@@H](O)[C@H]12 | active: 9.2 µM |
| Cn1c(O)c(/C=C/C=Nc2ccccc2)c(=O)n(C)c1=S | inconclusive: 29.1 µM [falling, single point] |
| CCCC/C(C)=C/[C@@H](NP(=O)(c1ccccc1)c1ccccc1)c1ccccc1 | inconclusive: 29.1 µM [falling, single point] |
| CCCOP(=O)(OCCC)c1nc(-c2ccccc2)oc1NCc1ccccc1 | inconclusive: 18.4 µM [falling, single point] |
| CN1C(=O)N(C)C(=O)C2(Sc3ccccc3C2=O)C1=O | inactive |
| COc1ccc(SCC2CN(C)CCC2c2ccc(F)cc2)cc1 (stereo not given) | inconclusive: 20.6 µM [activator, partial curve] |
| CC1(O)C[C@]2(C)N(O)C3CCCC[C@@H]3N2O1 (stereo not given in full) | inconclusive: 5.8 µM [activator, partial curve, poor fit] |
| COC(=O)C1=C(c2ccc(-c3ccccc3)c(F)c2)C[C@@H]2CC[C@H]1N2C(=O)NCCc1ccccc1 | inconclusive: 20.6 µM [falling, partial curve, poor fit] |
| O=C(NCc1ccccc1)c1cccn(Cc2ccccc2)c1=O | inconclusive: 23.1 µM [activator, single point] |
| CC1=CC(O)C(O)C2(C)C1CC1OC(=O)CC3C(C)C(O)C(=O)C2C13CO (stereo not given) | inconclusive: 14.6 µM [falling, partial curve] |
| Cc1c(C(=O)c2cccc3ccccc23)c2cccc3c2n1[C@H](CN1CCOCC1)CO3 | inconclusive: 29.1 µM [falling, single point] |
| COC(=O)C(NC(C)=O)(Nc1nc2c(C)cc(C)cc2s1)C(F)(F)F (stereo not given) | inconclusive: 12.6 µM [falling, partial curve, poor fit] |
| OCCNc1c2c(nc3ccccc13)CCCC2 | inactive |
| CN1CCN(c2ccc(/C=C3\C(=O)NC(=S)N(c4cccc(Br)c4)C3=O)o2)CC1 | inconclusive: 18.4 µM [falling, single point] |
| CC(C)(C)c1ccc(O)c(N=Cc2c(O)ccc3ccccc23)c1 | inconclusive: 23.1 µM [falling, partial curve, poor fit] |
| CCN1CCN(c2cc(N3CCCC3)c(F)cc2[N+](=O)[O-])CC1 | inactive |
| CC(=O)OC1(C)CC(C)C(=O)C(C(O)CC2CC(=O)NC(=O)C2)C1 (stereo not given) | inconclusive: 0.0052 µM [falling, full curve, poor fit] |
| O=C/C=C/c1ccccc1 | inactive |
| CC(=O)Nc1ccccc1C(=O)OCC(=O)c1ccc2c(c1)OCCO2 | inactive |

| Compound | Potency |
| --- | --- |
| COC(=O)C1=C(c2ccc(-c3ccccc3)c(F)c2)C[C@@H]2CC[C@H]1N2C(=O)NCCO | inactive |
| Clc1ccc(C(Cl)(Cl)Cl)c(Cl)c1 | inactive |
| Cc1cc([N+](=O)[O-])c2ccccc2[n+]1[O-] | inconclusive: 6.51 µM [falling, full curve, poor fit] |
| C#C[C@]1(O)CC[C@H]2[C@@H]3CCC4=Cc5nc6nc7ccccc7n6cc5C[C@]4(C)[C@H]3CC[C@@]21C | inconclusive: 1.64 µM [falling, full curve] |
| CC12CCC3C(CCC4(O)CC(O)CCC34C=O)C1(O)CCC2C1=CC(=O)OC1 (stereo not given) | inconclusive: 1.3 µM [falling, full curve] |
| COc1ccc(OCC(=O)N2CCN(Cc3nc4cc([N+](=O)[O-])ccc4n3C)CC2)cc1 | inactive |
| NCCc1cc(O)c(O)cc1O | inconclusive: 29.1 µM [falling, single point] |
| CCCCCn1c(=O)c(C(=O)Nc2ccccc2S(N)(=O)=O)c(O)c2ccccc21 | inconclusive: 29.1 µM [falling, single point] |
| CC(C)CCn1c(N)c(C(=O)NCc2cccs2)c2nc3ccccc3nc21 | inactive |
| CCC(C)C1NC(=O)C(NC(=O)C(CC(C)C)N(C)C(=O)C2CCCN2C(=O)C(C)O)C(C)OC(=O)C(Cc2ccc(OC)cc2)N(C)C(=O)C2CCCN2C(=O)C(CC(C)C)NC(=O)[C@H](C)C(=O)[C@H](C(C)C)OC(=O)CC1O (stereo not given in full) | active: 0.0366 µM |
| CN1CCN(c2ccc([N+](=O)[O-])c3no[n+]([O-])c23)CC1 | active: 23.1 µM |
| CCN(CC)C(=O)c1ccc(NC(=O)c2cccc(S(=O)(=O)N3CCN(Cc4ccccc4)CC3)c2)cc1 | inconclusive: 29.1 µM [falling, partial curve, poor fit] |
| NC(=O)c1ccc(OCCC(O)N2CC=C(c3ccc(F)cc3)CC2)cc1 (stereo not given) | inconclusive: 5.8 µM [activator, full curve, poor fit] |
| C#CC[N+]1(C)[C@@H]2CC(OC(=O)C(CO)c3ccccc3)C[C@H]1C(O)C2 (stereo not given in full) | inconclusive: 29.1 µM [activator, single point] |
| COc1ccc(-[n+]2c(-c3ccccc3)cc(-c3ccc(C)cc3)cc2-c2ccccc2)cc1 | inconclusive: 25.9 µM [falling, partial curve] |
| CC(C)OCCCNC(=O)c1c(N)n(CC2CCCO2)c2nc3ccccc3nc12 (stereo not given) | inconclusive: 20.6 µM [activator, single point] |
| CCC(C)NC(=O)c1c(N)n(Cc2ccc3c(c2)OCO3)c2nc3ccccc3nc12 (stereo not given) | inconclusive: 23.1 µM [falling, partial curve, poor fit] |
| O=[N+]([O-])c1cc(O)c(O)c([N+](=O)[O-])c1 | inconclusive: 23.1 µM [falling, partial curve] |
| CCC(=NCCc1c[nH]c2ccccc12)c1c(O)n(-c2ccc(C)cc2)c(=O)[nH]c1=O | inconclusive: 29.1 µM [falling, single point] |
| N=Cc1c(O)n(-c2cccc(Cl)c2)c(=O)[nH]c1=O | inconclusive: 32.6 µM [falling, partial curve, poor fit] |

A draw from above in order of heavy-atom count, smallest number first:

| Compound | Potency |
| --- | --- |
| Clc1ccc(C(Cl)(Cl)Cl)c(Cl)c1 | inactive |
| Cc1cc([N+](=O)[O-])c2ccccc2[n+]1[O-] | inconclusive: 6.51 µM [falling, full curve, poor fit] |
| N=Cc1c(O)n(-c2cccc(Cl)c2)c(=O)[nH]c1=O | inconclusive: 32.6 µM [falling, partial curve, poor fit] |
| CN1CCN(c2ccc([N+](=O)[O-])c3no[n+]([O-])c23)CC1 | active: 23.1 µM |
| CC(C)CCn1c(N)c(C(=O)NCc2cccs2)c2nc3ccccc3nc21 | inactive |
| CC12CCC3C(CCC4(O)CC(O)CCC34C=O)C1(O)CCC2C1=CC(=O)OC1 (stereo not given) | inconclusive: 1.3 µM [falling, full curve] |
| CCCCCn1c(=O)c(C(=O)Nc2ccccc2S(N)(=O)=O)c(O)c2ccccc21 | inconclusive: 29.1 µM [falling, single point] |
| CCC(=NCCc1c[nH]c2ccccc12)c1c(O)n(-c2ccc(C)cc2)c(=O)[nH]c1=O | inconclusive: 29.1 µM [falling, single point] |
| C#C[C@]1(O)CC[C@H]2[C@@H]3CCC4=Cc5nc6nc7ccccc7n6cc5C[C@]4(C)[C@H]3CC[C@@]21C | inconclusive: 1.64 µM [falling, full curve] |
| CCC(C)C1NC(=O)C(NC(=O)C(CC(C)C)N(C)C(=O)C2CCCN2C(=O)C(C)O)C(C)OC(=O)C(Cc2ccc(OC)cc2)N(C)C(=O)C2CCCN2C(=O)C(CC(C)C)NC(=O)[C@H](C)C(=O)[C@H](C(C)C)OC(=O)CC1O (stereo not given in full) | active: 0.0366 µM |
